Measured values: the supplement of paper PMC8728848
Some of the results follow.

Experiments:
Test in all cases: glycan array binding signal (z-score within array); higher = stronger binding
Details in all cases: glycan notation: IUPAC condensed, linker removed
Fuc(a1-2)Gal = molecular target: Fuc(a1-2)Gal
Method in brief: (§1)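 Glycan array data came from 3228 arrays in the Consortium for Functional Glycomics database, and only arrays with an available protein sequence were kept. Glycan names were put into IUPAC-condensed notation, and columns mapping to the same glycan were averaged. The binding signal is a within-array Z-score, averaged across arrays of one protein sequence run at different concentrations or buffers and across linkers. A negative Z-score can be read as non-binding.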

Fuc(a1-2)Gal(b1-3)GalNAc = molecular target: Fuc(a1-2)Gal(b1-3)GalNAc
Method in brief: as §1

[1] = molecular target: Fuc(a1-2)Gal(b1-3)GalNAc(a1-3)[Fuc(a1-2)]Gal(b1-4)Glc
Method in brief: as §1

[2] = molecular target: Fuc(a1-2)Gal(b1-3)GalNAc(a1-3)[Fuc(a1-2)]Gal(b1-4)GlcNAc
Method in brief: as §1

[3] = molecular target: Fuc(a1-2)Gal(b1-3)GalNAc(b1-3)Gal
Method in brief: as §1

[4] = molecular target: Fuc(a1-2)Gal(b1-3)GalNAc(b1-3)Gal(a1-4)Gal(b1-4)Glc
Method in brief: as §1

[5] = molecular target: Fuc(a1-2)Gal(b1-3)GalNAc(b1-4)[Neu5Ac(a2-3)]Gal(b1-4)Glc
Method in brief: as §1

Fuc(a1-2)Gal(b1-3)GlcNAc = molecular target: Fuc(a1-2)Gal(b1-3)GlcNAc
Method in brief: as §1

[6] = molecular target: Fuc(a1-2)Gal(b1-3)GlcNAc(b1-2)Man(a1-3)[Fuc(a1-2)Gal(b1-3)GlcNAc(b1-2)Man(a1-6)]Man(b1-4)GlcNAc(b1-4)GlcNAc
Method in brief: as §1

[7] = molecular target: Fuc(a1-2)Gal(b1-3)GlcNAc(b1-2)Man(a1-3)[Fuc(a1-2)Gal(b1-3)GlcNAc(b1-2)Man(a1-6)]Man(b1-4)GlcNAc(b1-4)[Fuc(a1-6)]GlcNAc
Method in brief: as §1

[8] = molecular target: Fuc(a1-2)Gal(b1-3)GlcNAc(b1-3)Gal(b1-4)Glc
Method in brief: as §1

[9] = molecular target: Fuc(a1-2)Gal(b1-3)GlcNAc(b1-3)GalNAc
Method in brief: as §1

[10] = molecular target: Fuc(a1-2)Gal(b1-3)GlcNAc(b1-3)[Fuc(a1-2)Gal(b1-3)GlcNAc(b1-6)]GalNAc
Method in brief: as §1

[11] = molecular target: Fuc(a1-2)Gal(b1-3)GlcNAc(b1-3)[Fuc(a1-3)[Gal(b1-4)]GlcNAc(b1-6)]Gal(b1-4)Glc
Method in brief: as §1

[12] = molecular target: Fuc(a1-2)Gal(b1-3)GlcNAc(b1-3)[Gal(b1-4)GlcNAc(b1-6)]Gal(b1-4)Glc
Method in brief: as §1

[13] = molecular target: Fuc(a1-2)Gal(b1-3)GlcNAc(b1-3)[Neu5Ac(a2-6)Gal(b1-4)GlcNAc(b1-6)]Gal(b1-4)Glc
Method in brief: as §1

[14] = molecular target: Fuc(a1-2)Gal(b1-3)GlcNAc6S
Method in brief: as §1

[15] = molecular target: Fuc(a1-2)Gal(b1-3)[Fuc(a1-4)]GlcNAc
Method in brief: as §1

[16] = molecular target: Fuc(a1-2)Gal(b1-3)[Fuc(a1-4)]GlcNAc(b1-2)Man(a1-3)[Fuc(a1-2)Gal(b1-3)[Fuc(a1-4)]GlcNAc(b1-2)Man(a1-3)]Man(b1-4)GlcNAc(b1-4)GlcNAc
Method in brief: as §1

[17] = molecular target: Fuc(a1-2)Gal(b1-3)[Fuc(a1-4)]GlcNAc(b1-2)Man(a1-3)[Fuc(a1-2)Gal(b1-3)[Fuc(a1-4)]GlcNAc(b1-2)Man(a1-6)]Man(b1-4)GlcNAc(b1-4)GlcNAc
Method in brief: as §1

[18] = molecular target: Fuc(a1-2)Gal(b1-3)[Fuc(a1-4)]GlcNAc(b1-2)Man(a1-3)[Fuc(a1-2)Gal(b1-3)[Fuc(a1-4)]GlcNAc(b1-2)Man(a1-6)]Man(b1-4)GlcNAc(b1-4)[Fuc(a1-6)]GlcNAc(b1-4)[Fuc(a1-6)]GlcNAc
Method in brief: as §1

[19] = molecular target: Fuc(a1-2)Gal(b1-3)[Fuc(a1-4)]GlcNAc(b1-3)[Fuc(a1-3)[Gal(b1-4)]GlcNAc(b1-6)]Gal(b1-4)Glc
Method in brief: as §1

[20] = molecular target: Fuc(a1-2)Gal(b1-3)[Fuc(a1-4)]GlcNAc(b1-3)[Gal(b1-4)GlcNAc(b1-6)]Gal(b1-4)Glc
Method in brief: as §1

[21] = molecular target: Fuc(a1-2)Gal(b1-4)Fuc(a1-3)]GlcNAc(b1-2)Man(a1-3)[Fuc(a1-2)Gal(b1-4)[Fuc(a1-3)]GlcNAc(b1-2)Man(a1-6)]Man(b1-4)GlcNAc(b1-4)GlcNAc
Method in brief: as §1

Fuc(a1-2)Gal(b1-4)Glc = molecular target: Fuc(a1-2)Gal(b1-4)Glc
Method in brief: as §1

Fuc(a1-2)Gal(b1-4)Glc6S = molecular target: Fuc(a1-2)Gal(b1-4)Glc6S
Method in brief: as §1

Fuc(a1-2)Gal(b1-4)GlcNAc = molecular target: Fuc(a1-2)Gal(b1-4)GlcNAc
Method in brief: as §1

[22] = molecular target: Fuc(a1-2)Gal(b1-4)GlcNAc(b1-2)Man
Method in brief: as §1

[23] = molecular target: Fuc(a1-2)Gal(b1-4)GlcNAc(b1-2)Man(a1-3)[Fuc(a1-2)Gal(b1-4)GlcNAc(b1-2)Man(a1-6)]Man(b1-4)GlcNAc(b1-4)GlcNAc
Method in brief: as §1

[24] = molecular target: Fuc(a1-2)Gal(b1-4)GlcNAc(b1-2)Man(a1-3)[Fuc(a1-2)Gal(b1-4)GlcNAc(b1-2)Man(a1-6)]Man(b1-4)GlcNAc(b1-4)[Fuc(a1-6)]GlcNAc
Method in brief: as §1

[25] = molecular target: Fuc(a1-2)Gal(b1-4)GlcNAc(b1-2)[Fuc(a1-2)Gal(b1-4)GlcNAc(b1-4)]Man(a1-3)[Fuc(a1-2)Gal(b1-4)GlcNAc(b1-2)Man(a1-6)]Man(b1-4)GlcNAc(b1-4)GlcNAc
Method in brief: as §1

[26] = molecular target: Fuc(a1-2)Gal(b1-4)GlcNAc(b1-3)Gal(b1-4)GlcNAc
Method in brief: as §1

[27] = molecular target: Fuc(a1-2)Gal(b1-4)GlcNAc(b1-3)Gal(b1-4)GlcNAc(b1-2)Man(a1-3)[Fuc(a1-2)Gal(b1-4)GlcNAc(b1-3)Gal(b1-4)GlcNAc(b1-2)Man(a1-6)]Man(b1-4)GlcNAc(b1-4)GlcNAc
Method in brief: as §1

[28] = molecular target: Fuc(a1-2)Gal(b1-4)GlcNAc(b1-3)Gal(b1-4)GlcNAc(b1-3)Gal(b1-4)GlcNAc
Method in brief: as §1

[29] = molecular target: Fuc(a1-2)Gal(b1-4)GlcNAc(b1-3)GalNAc
Method in brief: as §1

[30] = molecular target: Fuc(a1-2)Gal(b1-4)GlcNAc(b1-3)[Fuc(a1-2)Gal(b1-4)GlcNAc(b1-6)]GalNAc
Method in brief: as §1

[31] = molecular target: Fuc(a1-2)Gal(b1-4)GlcNAc(b1-3)[Fuc(a1-3)[Gal(b1-4)]GlcNAc(b1-6)]Gal(b1-4)Glc
Method in brief: as §1

Binder: KISKRILTGKK [NK11 (Sus scrofa)]
- glycan array binding signal (z-score) (Fuc(a1-2)Gal): -0.368
- glycan array binding signal (z-score) (Fuc(a1-2)Gal(b1-3)GalNAc): -0.148
- glycan array binding signal (z-score) [1]: -0.498
- glycan array binding signal (z-score) [2]: -0.539
- glycan array binding signal (z-score) [3]: -0.392
- glycan array binding signal (z-score) [4]: 0.084
- glycan array binding signal (z-score) [5]: 0.654
- glycan array binding signal (z-score) (Fuc(a1-2)Gal(b1-3)GlcNAc): -0.549
- glycan array binding signal (z-score) [6]: -0.957
- glycan array binding signal (z-score) [7]: -0.504
- glycan array binding signal (z-score) [8]: 0.203
- glycan array binding signal (z-score) [9]: -0.367
- glycan array binding signal (z-score) [10]: -1.15
- glycan array binding signal (z-score) [11]: -0.41
- glycan array binding signal (z-score) [12]: -0.36
- glycan array binding signal (z-score) [13]: -0.466
- glycan array binding signal (z-score) [14]: -0.416
- glycan array binding signal (z-score) [15]: -0.166
- glycan array binding signal (z-score) [16]: -0.214
- glycan array binding signal (z-score) [17]: 0.156
- glycan array binding signal (z-score) [18]: 0.503
- glycan array binding signal (z-score) [19]: -0.004
- glycan array binding signal (z-score) [20]: -0.767
- glycan array binding signal (z-score) [21]: 0.774
- glycan array binding signal (z-score) (Fuc(a1-2)Gal(b1-4)Glc): -0.492
- glycan array binding signal (z-score) (Fuc(a1-2)Gal(b1-4)Glc6S): -0.124
- glycan array binding signal (z-score) (Fuc(a1-2)Gal(b1-4)GlcNAc): -0.676
- glycan array binding signal (z-score) [22]: 0.05
- glycan array binding signal (z-score) [23]: -0.741
- glycan array binding signal (z-score) [24]: -0.353
- glycan array binding signal (z-score) [25]: 0.234
- glycan array binding signal (z-score) [26]: -0.495
- glycan array binding signal (z-score) [27]: 1.2
- glycan array binding signal (z-score) [28]: 0.299
- glycan array binding signal (z-score) [29]: 0.09
- glycan array binding signal (z-score) [30]: 0.131
- glycan array binding signal (z-score) [31]: 0.348
